The values that follow come from doi:10.1101/2025.06.12.659276.

Amino acid sequences for entries named in this document (tags omitted).
UniProt P69332: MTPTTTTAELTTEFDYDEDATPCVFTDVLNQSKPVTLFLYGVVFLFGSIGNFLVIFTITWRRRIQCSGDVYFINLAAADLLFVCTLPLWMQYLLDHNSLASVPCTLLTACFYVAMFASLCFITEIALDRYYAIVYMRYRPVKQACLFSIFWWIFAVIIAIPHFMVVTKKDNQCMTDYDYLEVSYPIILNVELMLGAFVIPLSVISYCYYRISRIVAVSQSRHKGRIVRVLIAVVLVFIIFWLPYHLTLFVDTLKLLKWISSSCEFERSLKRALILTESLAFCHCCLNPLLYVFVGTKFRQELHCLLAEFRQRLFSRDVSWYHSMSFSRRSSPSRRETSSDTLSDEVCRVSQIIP
UniProt P49407: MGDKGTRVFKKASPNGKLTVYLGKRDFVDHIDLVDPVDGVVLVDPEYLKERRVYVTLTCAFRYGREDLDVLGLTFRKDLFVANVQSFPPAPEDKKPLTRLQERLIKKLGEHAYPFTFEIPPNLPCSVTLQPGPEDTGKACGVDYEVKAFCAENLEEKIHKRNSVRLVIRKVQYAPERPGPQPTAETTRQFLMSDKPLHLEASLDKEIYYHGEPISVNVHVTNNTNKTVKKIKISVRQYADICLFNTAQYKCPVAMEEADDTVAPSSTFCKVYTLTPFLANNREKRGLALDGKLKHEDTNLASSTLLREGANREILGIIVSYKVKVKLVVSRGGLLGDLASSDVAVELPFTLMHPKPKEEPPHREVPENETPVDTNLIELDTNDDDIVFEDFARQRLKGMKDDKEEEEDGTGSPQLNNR
UniProt P32121: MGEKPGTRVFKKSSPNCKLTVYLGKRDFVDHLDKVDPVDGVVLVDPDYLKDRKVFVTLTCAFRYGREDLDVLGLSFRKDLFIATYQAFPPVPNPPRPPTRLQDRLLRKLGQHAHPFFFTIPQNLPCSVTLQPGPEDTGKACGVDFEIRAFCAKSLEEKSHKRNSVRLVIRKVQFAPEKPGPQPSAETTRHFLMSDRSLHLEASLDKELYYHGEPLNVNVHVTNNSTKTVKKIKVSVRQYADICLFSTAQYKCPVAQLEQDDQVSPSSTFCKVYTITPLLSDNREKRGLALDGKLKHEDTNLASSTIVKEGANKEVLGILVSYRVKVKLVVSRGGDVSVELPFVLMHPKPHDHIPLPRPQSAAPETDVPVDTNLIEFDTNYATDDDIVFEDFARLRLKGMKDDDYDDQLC

This assay addresses US28-Rluc (human cytomegalovirus) (UniProt P69332). As to the kind of experiment: FRET or BRET; net BRET titration (saturation) curves in living U251 cells: increasing β-arrestin 1/2 fused to GFP10 with fixed amounts of US28-Rluc, US28-PDCT-Rluc or Rluc; Tyrode's buffer pH 7.4, 37°C, coelenterazine 400a. (BRET reads energy transfer from a luciferase to a nearby fluorophore.)

These are yes or no findings as the source states them, for the method shown. Binding seen in cells or lysates may run through a third protein. Some results given as binding are weak or reduced against the parent protein; the word gives no strength.

For “β-arrestin1-GFP10 (from UniProt P49407 1-418)”, the binding result is reported as “binds”. In the case of “βarrestin2-GFP10 (from UniProt P32121 1-409)”, the binding result was “binds”.
